Primary screen of a compound library

Sequences of proteins named here, by UniProt entry; tags and fusion partners are left off. Residues count along the entry.
UniProt Q8IDJ8, 1-583: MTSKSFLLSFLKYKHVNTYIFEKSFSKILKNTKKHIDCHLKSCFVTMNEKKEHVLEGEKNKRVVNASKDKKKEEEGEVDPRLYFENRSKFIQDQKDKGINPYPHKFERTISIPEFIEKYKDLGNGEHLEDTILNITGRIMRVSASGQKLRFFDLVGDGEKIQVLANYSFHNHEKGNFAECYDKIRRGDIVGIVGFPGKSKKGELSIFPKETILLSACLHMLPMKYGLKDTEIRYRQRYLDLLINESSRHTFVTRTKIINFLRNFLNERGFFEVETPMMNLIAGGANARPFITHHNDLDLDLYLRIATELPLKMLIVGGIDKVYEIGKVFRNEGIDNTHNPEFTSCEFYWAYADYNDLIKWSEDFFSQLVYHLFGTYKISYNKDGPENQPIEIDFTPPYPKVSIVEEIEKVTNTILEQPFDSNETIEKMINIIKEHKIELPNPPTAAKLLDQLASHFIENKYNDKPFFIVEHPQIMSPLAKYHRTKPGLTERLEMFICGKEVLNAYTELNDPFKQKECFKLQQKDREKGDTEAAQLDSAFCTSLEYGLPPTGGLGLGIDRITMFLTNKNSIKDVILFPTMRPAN

The filed quantity is “Percent Effect” (%). The record does not define 0% and 100%; most values in the screen are far below 50% and negative numbers occur (in some assays of this library far below -100). This is an unselected part of the compounds tested.

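Enzyme assay of the cytosolic lysyl-tRNA synthetase in 384-well plates, read by luminescence. Target: Lysine-tRNA ligase, Plasmodium falciparum 3D7 (UniProt Q8IDJ8). Tested at 30 µM. Higher reads as stronger inhibition, judged from the few compounds that gave an IC50. Of about 69,000 compounds tested this way, about 49 (0.071%) reached 50% or more in at least one test.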

Cn1nc2c(cc1=O)CN(CC(=O)Nc1cc(C(C)(C)C)no1)CC2 gave 5.312%.
Cc1nc(C(=O)N2CCN(C(=O)C3CCC3)[C@@H]3CS(=O)(=O)C[C@@H]32)cs1 gave 6.686%.
CCN(CC)CCn1ccnc1-c1[nH]cnc1C gave 6.106%.
COc1ccc(C2SCC(=O)Nc3ccsc32)cc1OC (stereo not shown) gave 7.516%.
CC(C)(C)NC(=O)c1ccccc1NC(=O)c1ccncc1 gave 0.02338%.
Cc1ccc(C(C)NC(=O)N2CCN(S(C)(=O)=O)CC2)o1 (stereo not shown) gave 5.521%.
COC(=O)NCC(=O)NCc1nn(-c2ccccc2)c2c1CCC2 gave 1.308%.
COC(=O)CN(C(=O)c1cccc(F)c1Cl)c1cccc(C)n1 gave -3.768%.
Cc1ccc(-n2cc(CN3CCN(C)[C@@H]4CS(=O)(=O)C[C@@H]43)cn2)cc1 gave 9.851%.
Cc1noc(CCCc2nc(C3CCOC3)no2)n1 (stereo not shown) gave -3.384%.
COC(=O)c1ccc(NS(=O)(=O)c2cnc(NC(C)=O)s2)cc1 gave 2.75%.
Cc1cnn(C2CN(Cc3nnc(Cc4ccccc4)o3)C2)c1 gave -2.863%.
O=C(CN1CCCS1(=O)=O)NCCOc1ccc2c(c1)CCC2 gave -1.125%.
COc1c(C)cnc(CN2CCC(C(=O)N(C)C)CC2)c1C gave -0.5449%.
CC(C)C(C)NC(=O)CCN1C(=O)CCc2cc(F)ccc21 (stereo not shown) gave 3.62%.
Cn1cc(CN2CCc3c(CNC(=O)C4CC4)cncc3C2)cn1 gave 0.1248%.
Cc1ccccc1-c1noc(CN2CCOC(Cn3cccn3)C2)n1 (stereo not shown) gave 0.09474%.
Fc1cnc(N2CC3(CCN(Cc4ccsc4)C3)C2)nc1 gave 1.7%.
COc1ccc(C)cc1NC(=O)CNc1ccn(CC(N)=O)n1 gave 5.403%.
Cc1n[nH]c(C2CN(CC(=O)NCCc3ccc(F)cc3)CCO2)n1 (stereo not shown) gave 4.705%.
COc1cccc(-c2c[nH]c(C)n2)c1F gave 3.061%.
CCc1cc2c(N3CCCC(c4cc(C(N)=O)[nH]n4)C3)ncnc2s1 (stereo not shown) gave 6.761%.
CC(C)OCc1cccc(CNc2cnn(C)c(=O)c2Cl)c1 gave 1.911%.
Cc1ncsc1-c1nnc(C2CCN(CC3CCCCC3)CC2)o1 gave -3.267%.
Cc1oc(-c2cccs2)nc1C(=O)N1CCCC1Cn1cccn1 (stereo not shown) gave 1.817%.
NCCC1CN(Cc2cnc3c(-c4ccccc4)cnn3c2)CCO1 (stereo not shown) gave 1.445%.
NC(=O)CSc1ccccc1NC(=O)C1CCCCC1 gave -0.9293%.
COc1ccc(CC(=O)N2CCCC2Cn2cc(C)cn2)c(OC)c1 (stereo not shown) gave 0.6909%.
Cc1ncnc2c1CCN(C(=O)c1cnccn1)CC2 gave 6.387%.
Cn1cc(N2C(=O)CC[C@@H]3[C@H]2CCN3Cc2cccc(C#N)c2)cn1 gave 0.1415%.
Cc1ccc(CCC(=O)N2CCOCC2)cc1Cl gave 0.7213%.
CC(=O)N1CCCC(C(=O)NCCOc2cc(C)cc(C)c2)C1 (stereo not shown) gave -1.757%.
Cc1ccc(NC(=O)NCC(c2cnn(C)c2)N(C)C)c(C)c1 (stereo not shown) gave 2.399%.
CCN1CC(C(=O)NCc2noc(Cc3ccccc3)n2)CCC1=O (stereo not shown) gave 7.009%.
c1csc(N2CCN(c3nccn4cnnc34)CC2)n1 gave -1.936%.
c1ccc(Oc2cccc(OC34CCCN(CC3)C4)c2)cc1 (stereo not shown) gave -0.2251%.
CCCn1cc(C(=O)NC(CC(=O)O)c2ccccc2F)c(C)n1 (stereo not shown) gave 2.228%.
CCCS(=O)(=O)N1CCC(NC(=O)c2cc(C)c(CC)s2)CC1 gave 4.494%.
O=S(=O)(c1ccc(F)cc1)N1CCCCC1c1cc[nH]n1 (stereo not shown) gave 3.444%.
Cc1cc(CN2C[C@@H](N3CCN(C)CC3)[C@H]3OCCC[C@H]32)oc1C gave 3.96%.
Cc1csc(NC(=O)NCCCN2CCC(C(N)=O)CC2)n1 gave -4.759%.
COCCCC1(CO)CCCN(C(=O)c2cnc(C3CC3)nc2)C1 (stereo not shown) gave 1.39%.
CC1CCCCN1C1CN(c2nc(C3CCCC3)nc3c2cnn3C)C1 (stereo not shown) gave 4.493%.
COCC(c1cccc(C(F)(F)F)c1)N(C)C(=O)c1cc(C)no1 (stereo not shown) gave -1.589%.
Cc1nc(CCC(N)=O)cc(C2CCNCC2)n1 gave -1.717%.
Cc1ccc2c(c1)C(NCc1nccn1Cc1ccccc1)CCCO2 (stereo not shown) gave 1.993%.
CN1C[C@@H](F)[C@@H](OCc2nc3ccc(C#N)cc3[nH]2)C1 gave 4.244%.
c1ccc(-n2cc(CN3CCCC(Cn4cncn4)C3)nn2)cc1 (stereo not shown) gave 10.6%.
CC(C)Nc1ncnc2c1CCN(C(=O)NCc1cccnc1)CC2 gave 3.643%.
CN(Cc1ccccc1CN1CCCC1)c1ncnc2[nH]ccc12 gave 5.498%.

Data taken from ChEMBL document CHEMBL3988442, “University of Dundee, Small-Polar-MMV Screening Library” (2021).